Measurements published in US11976334B2, “Inhibitor of ATR kinase for use in a method of treating a hyper-proliferative disease” (Bayer Aktiengesellschaft, priority 2017, dated 2024).

System: isogenic cell lines derived from DT40 chicken lymphoma cells

C[C@@H]1COCCN1c1cc(-c2ccnn2C)c2ccnc(-c3ccn[nH]3)c2n1 [Compound A, 2-[(3R)-3-methylmorpholin-4-yl]-4-(1-methyl-1H-pyrazol-5-yl)-8-(1H-pyrazol-5-yl)-1,7-naphthyridine]
sensitivity towards Compound A as compared to wild-type cells (DT40 cells deficient in TP53BP1, RAD9A, RAD17, H2AFX, RAD52, BRCA1, BRCA2, UBE2N, PCNA, PARP1, TDP2, FANCD2, FANCG, POLL, POLL/POLB, REV3L, FEN1, XPA, ERCC5 or BLM): ≥ 2 fold
strongest effects (sensitization versus wild-type) (PCNA, FEN1, H2AFX, BRCA1 deficient DT40 cells): > 8 fold
strong sensitizations versus wild-type (RAD17, PARP1, FANCD2, UBE2N, RAD9A, REV3L, TP53BP1, ERCC5 and BLM deficient DT40 cells): > 4 fold
